For four substances, binding results are on record in article doi:10.1101/2024.06.18.599485.

By UniProt entry, the sequences of proteins in these tests, tags left out. Where a name states a change or a piece, a line headed by the entry shows the natural chain unless it says otherwise.
UniProt Q14738: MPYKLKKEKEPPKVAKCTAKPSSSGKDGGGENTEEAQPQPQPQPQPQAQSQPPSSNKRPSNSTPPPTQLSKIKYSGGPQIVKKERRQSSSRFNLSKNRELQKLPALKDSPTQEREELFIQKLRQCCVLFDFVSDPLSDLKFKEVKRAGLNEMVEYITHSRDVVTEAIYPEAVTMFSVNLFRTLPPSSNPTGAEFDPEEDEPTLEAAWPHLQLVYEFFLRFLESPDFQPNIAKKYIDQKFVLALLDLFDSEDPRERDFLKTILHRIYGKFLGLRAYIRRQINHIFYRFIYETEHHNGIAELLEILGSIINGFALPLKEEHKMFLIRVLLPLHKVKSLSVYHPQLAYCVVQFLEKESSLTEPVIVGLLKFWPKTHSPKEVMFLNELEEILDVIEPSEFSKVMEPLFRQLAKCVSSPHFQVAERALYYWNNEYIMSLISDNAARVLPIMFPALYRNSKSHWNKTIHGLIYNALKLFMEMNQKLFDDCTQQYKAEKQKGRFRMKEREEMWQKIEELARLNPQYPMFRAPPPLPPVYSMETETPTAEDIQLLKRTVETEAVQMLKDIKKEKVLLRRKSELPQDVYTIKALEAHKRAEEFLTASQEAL
UniProt Q13136: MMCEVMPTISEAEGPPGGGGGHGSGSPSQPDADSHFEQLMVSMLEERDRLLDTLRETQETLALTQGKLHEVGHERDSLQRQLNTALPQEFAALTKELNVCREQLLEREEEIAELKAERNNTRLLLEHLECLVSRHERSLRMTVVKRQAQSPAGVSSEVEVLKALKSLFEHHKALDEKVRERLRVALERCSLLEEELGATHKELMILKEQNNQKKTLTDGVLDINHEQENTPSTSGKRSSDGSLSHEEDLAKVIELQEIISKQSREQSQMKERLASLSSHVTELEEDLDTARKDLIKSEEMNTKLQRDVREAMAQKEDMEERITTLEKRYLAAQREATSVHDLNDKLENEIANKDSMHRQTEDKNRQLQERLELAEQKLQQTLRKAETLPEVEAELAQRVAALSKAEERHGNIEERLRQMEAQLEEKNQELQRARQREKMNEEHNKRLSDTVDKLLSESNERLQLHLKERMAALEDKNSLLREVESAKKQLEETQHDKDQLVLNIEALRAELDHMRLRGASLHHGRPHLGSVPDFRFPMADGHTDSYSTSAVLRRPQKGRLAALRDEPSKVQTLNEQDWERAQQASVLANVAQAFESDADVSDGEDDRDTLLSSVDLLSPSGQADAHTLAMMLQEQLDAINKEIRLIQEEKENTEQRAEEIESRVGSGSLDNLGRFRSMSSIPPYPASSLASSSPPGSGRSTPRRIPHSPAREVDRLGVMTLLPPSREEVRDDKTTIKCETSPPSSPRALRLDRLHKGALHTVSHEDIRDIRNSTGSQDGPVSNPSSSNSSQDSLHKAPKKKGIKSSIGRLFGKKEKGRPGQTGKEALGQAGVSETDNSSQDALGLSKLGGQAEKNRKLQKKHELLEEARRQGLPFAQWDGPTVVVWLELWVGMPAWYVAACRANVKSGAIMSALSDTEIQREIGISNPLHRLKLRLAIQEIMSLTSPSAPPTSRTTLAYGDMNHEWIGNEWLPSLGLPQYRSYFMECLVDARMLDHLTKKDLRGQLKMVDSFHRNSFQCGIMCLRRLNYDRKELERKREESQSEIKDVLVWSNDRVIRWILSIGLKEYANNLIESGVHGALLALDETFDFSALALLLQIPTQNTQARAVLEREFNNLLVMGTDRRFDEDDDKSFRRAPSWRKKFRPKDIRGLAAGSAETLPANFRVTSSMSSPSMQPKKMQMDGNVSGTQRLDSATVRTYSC

These are yes or no findings as the source states them, for the method shown. In cells and extracts the contact can be indirect. Some binding calls cover weakened binding; strength is not graded here.

This assay deals with GFP-tagged B56δ (UniProt Q14738). The experiment in a line: co-IP.
For the substance “FLAG-tagged full-length liprin-α1 (WT) (from UniProt Q13136 1-1202)”, the binding result is recorded as “binds”.
Consider “FLAG-tagged liprin-α1 Δ1-30 (from UniProt Q13136 31-1202) (domain or fragment)”, for which the binding entry is “binds”.
“FLAG-tagged liprin-α1 Δ1-152 (from UniProt Q13136 153-1202) (domain or fragment)”: the binding entry is “no binding”.
Regarding “FLAG-tagged liprin-α1 Δ1-180 (from UniProt Q13136 181-1202) (domain or fragment)”, the binding entry is recorded as “no binding”.
